Test results taken from article PMC12216609, “Inhibitors of eIF1A-ribosome interaction unveil uORF-dependent regulation of translation initiation and antitumor and antiviral effects” (The EMBO Journal, 2025).
Read-outs that look alike come from different tables or passages of the source. Certain results were filed several times, with different values. This list holds those alone. There may be further records. Results that share an entry differ, and nothing given here explains why; they may come from other doses, times, organisms or constructs than stated.

How the values were obtained:
[1] = system: IRF7 5'UTR firefly luciferase reporter in HEK293T cells; details: for Short: Normalized to average DMSO: Short reporter;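 as to all read-outs here: luciferase signal corrected by a co-transfected GFP reporter for transfection efficiency, read after overnight compound exposure, with Long and Short reporters differing in 5'UTR length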
[2] = system: CUG/GUG vs AUG start codon luciferase reporters in HEK293T cells; assay: Near-cognate AUG starting codon fidelity reporter assay (GUG, CUG vs AUG); type: cell-based; details: listed as 8214
1Ais toxicity in mice = type: in vivo, C57 black mice; details: group 2; individual animals
[3] = system: uORF-bearing 5'UTR firefly reporters in HEK293T cells; assay: uORF reinitiation / leaky scanning firefly reporters; details: for FF vs RL 2 / averages of FF vs RL 2: 95nt experiment, block FF-2 (c153)

COc1cc2nccc(Oc3ccc(NC(=O)Nc4cc(C)on4)c(Cl)c3)c2cc1OC
Long: Normalized to average DMSO ([1]; listed as 4927): 0.3921, 0.2098, 0.137, 0.141

COc1cccc(Nc2nc(-c3ccc(NC(C)=O)cc3)c(C)s2)c1 [1Ai-1869]
Long: Normalized to average DMSO ([1]; data section, Long reporter, GFP-corrected, 5 µM, per experiment, listed as 1869): 0.511, 0.2492, 0.6117

COC(=O)C1=C(C)NC2=C(C(=O)CC(c3ccc(F)cc3)C2)C1c1ccc(N(C)C)cc1Cl (stereo not shown) [1Ai-9162]
Long: Normalized to average DMSO ([1]; data section, Long reporter, GFP-corrected, 20 µM, per experiment, includes values excluded as outliers, listed as 9162): 0.5387, 0.5337, 0.2707, 0.6401
Short: Normalized to average DMSO ([1]; data section, GFP-corrected, 20 µM, per experiment, includes values excluded as outliers, listed as 9162): 0.543, 0.4733, 0.458, 1.459

C=CCNC(=O)CN1CCN(Cc2nc3cc(-c4ccc(Cl)cc4)sc3c(=O)[nH]2)CC1 [1Ai-1524]
Long: Normalized to average DMSO ([1]; data section, Long reporter, GFP-corrected, 20 µM, per experiment, includes values excluded as outliers, listed as 1524): 0.6159, 0.2117, 0.427, 0.5227
Short: Normalized to average DMSO ([1]; data section, GFP-corrected, 20 µM, per experiment, includes values excluded as outliers, listed as 1524): 0.5026, 0.6608, 1.765, 0.409

O=C1c2ccccc2NC(c2cc(O)c(O)c(Cl)c2)N1c1ccccc1 (stereo not shown) [1A-8214]
calculation: CUG (AUG = 100) [2]: 5.18 and 16.909
calculation: GUG (AUG = 100) [2]: 1.769 and 4.804
Long: Normalized to average DMSO ([1]; listed as 8214): 0.1988, 0.3048, 0.4317, 0.9084
Euthanized Notes (1Ais toxicity in mice): 1/4 dark spleen and 1/2 of Spleen dark red

NS(=O)(=O)c1cccc(-c2ccc(C3Nc4ccccc4-c4nc5ccccc5n43)o2)c1 (stereo not shown) [1Ai-0050]
Long: Normalized to average DMSO ([1]; data section, Long reporter, GFP-corrected, 20 µM, per experiment, includes values excluded as outliers, listed as 0050): 1.251, 0.9381, 0.5424, 1.628
Short: Normalized to average DMSO ([1]; data section, GFP-corrected, 20 µM, per experiment, includes values excluded as outliers, listed as 0050): 3.582, 0.7183, 4.9

Cc1cc(-n2c(C)cc(-c3csc(N)n3)c2C)no1 [1Ai-6464]
Short: Normalized to average DMSO ([1]; data section, GFP-corrected, 20 µM, per experiment, includes values excluded as outliers, listed as 6464): 0.1632, 1.353, 0.6742, 1.063

Oc1cc(Cl)ccc1Oc1ccc(Cl)cc1Cl [1Ai-6248]
Long: Normalized to average DMSO ([1]; data section, Long reporter, GFP-corrected, 5 µM, per experiment, listed as 6248): 0.427, 0.8225, 0.5097, 0.3257

CCOC(=O)c1ccsc1NC(=O)CN1C(=O)NC(C)(c2cccc3ccccc23)C1=O (stereo not shown) [1Ai-1861]
Short: Normalized to average DMSO ([1]; data section, GFP-corrected, 20 µM, per experiment, includes values excluded as outliers, listed as 1861): 0.2761, 0.3541, 0.5218, 0.6776

O=C(/C=C/c1ccc(Cl)s1)Nc1cccc2ncccc12
Short: Normalized to average DMSO ([1]; data section, GFP-corrected, 20 µM, per experiment, includes values excluded as outliers, listed as 4860): 0.8414, 0.8396, 1.6155, 0.7727

O=C(COc1ccccc1[N+](=O)[O-])NCc1ccc(-c2ccc(Br)cc2)o1
Long: Normalized to average DMSO ([1]; data section, Long reporter, GFP-corrected, 20 µM, per experiment, includes values excluded as outliers, listed as 4700): 0.8352, 0.378, 0.209, 0.5992
Short: Normalized to average DMSO ([1]; data section, GFP-corrected, 20 µM, per experiment, includes values excluded as outliers, listed as 4700): 1.104, 0.6454, 2.338, 0.8681
FF vs RL 2 ([3]; reporter minus 46, DMSO 0.0521225, 0.079704): 0.02662, 0.02707, 0.1018, 0.1662, 0.03733, 0.02176
averages of FF vs RL 2 ([3]; reporter minus46, DMSO 0.079704): 0.02684, 0.134, 0.02954
FF vs RL 2 ([3]; reporter minus 46 plus 50, DMSO 0.0854972, 0.116279): 0.1345, 0.1401, 0.261, 0.2146, 0.1248, 0.09833
averages of FF vs RL 2 ([3]; reporter minus 95, DMSO 0.100888): 0.1373, 0.2378, 0.1116
averages of FF vs RL 2 ([3]; reporter ref, DMSO 0.125352): 0.1035, 0.3719, 0.07639
FF vs RL 2 ([3]; reporter reference, DMSO 0.151626, 0.0990775): 0.06994, 0.1371, 0.375, 0.3687, 0.07321, 0.07957
normalized to DMSO, refference, biological repeats ([3]; refference reporter, biological repeats 1-4, listed as 4700): 0.891, 0.989, 0.575, 1.178

O=c1cc(CN2CCOCC2)occ1OCCCCCSc1ccnc2cc(C(F)(F)F)ccc12 [1Ai-5730]
Long: Normalized to average DMSO ([1]; data section, Long reporter, GFP-corrected, 10 µM, per experiment, listed as 5730): 0.655 and 0.3999

O=S(=O)(c1ccccc1)N1CCN(C2c3ccccc3-c3ccccc32)CC1 [1Ai-9025]
Short: Normalized to average DMSO ([1]; data section, GFP-corrected, 20 µM, per experiment, includes values excluded as outliers, listed as 9025): 0.3982, 1.3, 0.7343, 1.513

Cc1ccc(C)n1-c1cc([N+](=O)[O-])ccc1N1CCN(C(=O)c2ccccc2)CC1 [1Ai-9008]
Short: Normalized to average DMSO ([1]; data section, GFP-corrected, 20 µM, per experiment, includes values excluded as outliers, listed as 9008): 0.6588, 0.5909, 0.2377, 0.2631
